Measured values: publication doi:10.1101/501064 (bioRxiv, 2018)
No constants are given. Whether binding was seen depends on the method and setting. Some entries that bind do so weakly or less than the wild type.

By UniProt entry, the sequences of proteins in these tests, tags left out. Residues count along the entry.
UniProt Q14160, residues 728-815: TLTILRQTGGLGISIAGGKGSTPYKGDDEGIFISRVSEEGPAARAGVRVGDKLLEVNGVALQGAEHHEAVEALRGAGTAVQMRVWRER

Molecular target: human Scribble PDZ1 domain (728-815) (human, UniProt Q14160 728-815)
Experiment: crystal structure

In the case of PHTNETSL (phosphorylated Ser residue at position -1 (pS828): PHTNET(phoS)L) [phosphorylated MCC 8-mer peptide (phospho-Ser at position -1)], the binding is reported as “binds”.
